The text below walks through data of patent publication US12173188B2, “Ultraviolet absorbing agent, ultraviolet absorbing composition, ultraviolet absorbing film, laminate, and novel compound” (FUJIFILM CORPORATION, priority 2019, dated 2024).

The nature of series [1]: Haze (initial haze) of ultraviolet absorbing film by haze meter.
Series [2] is described as follows: Yellowishness, visual observation of laminate on white paper.
Setting [3] is: film from 2.0 parts agent, 98.0 parts PVA, spin coating (Examples 6-9).
Where [4] appears, read: film from 5.0 parts agent, 45.0 parts PVA, dip coating, 1.5 mm, compensated for glass plate haze (0.20%) (Examples 1-5, Comparative Examples 1-5).
The mark [5] stands for this setting: 2.0 parts agent/98.0 parts PVA film.
Where [6] appears, read: 5.0 parts agent/45.0 parts PVA film.

Molecules are shown by their SMILES.

As to `CCCCN1C(=O)C(=C2Sc3c(OCCCCS(=O)(=O)[O-])ccc(OCCCCS(=O)(=O)[O-])c3S2)C(=O)N1CCCC.[Na+].[Na+]` [Compound M-11], the Initial haze in series [1] (setting [3]) was determined as 0.1; in series [1] (setting [4]), 0.2. For the same compound, the Yellowishness result in series [2] (setting [5]) and in series [2] (setting [6]) was “No” throughout.
In series [1] (setting [4]), `O=S(=O)([O-])CCNc1nc(NCCS(=O)(=O)[O-])nc(Nc2ccc(C=Cc3ccc(Nc4nc(NCCS(=O)(=O)[O-])nc(NCCS(=O)(=O)[O-])n4)cc3S(=O)(=O)[O-])c(S(=O)(=O)[O-])c2)n1.[Na+].[Na+].[Na+].[Na+].[Na+].[Na+]` [Compound H-3, reference compound] had an Initial haze of 0.8. Besides, in series [2] (setting [6]), the Yellowishness entry is listed as “No”.
With `CCCCC(CC)COc1ccc(OCC(CC)CCCC)c2c1SC(=C1C(=O)N(CCCC)N(CCCC)C1=O)S2` (centres unmarked) [Compound H-5, reference compound], the Initial haze in series [1] (setting [4]) came to 14. Besides, the Yellowishness result in series [2] (setting [6]) was “Yes”.
On to `CCCCN1C(=O)C(=C2Sc3c(OCCCCS(=O)(=O)[O-])c4c(c(OCCCCS(=O)(=O)[O-])c3S2)SC(=C2C(=O)N(CCCC)N(CCCC)C2=O)S4)C(=O)N1CCCC.[Na+].[Na+]` [Compound H-4, reference compound], for which the Initial haze in series [1] (setting [4]) is 4.5; in series [1] (in words, summary of Table 1) it was “good”. In addition, the Yellowishness entry in series [2] (setting [6]) is given as “Yes”.
Compound `O=C(c1ccc(O)cc1O)c1ccc(O)cc1O` [Compound H-1, reference compound] yielded an Initial haze in series [1] (setting [4]) of 0.4. In addition, the Yellowishness entry in series [2] (setting [6]) is given as “No”.
With `CON=CC(C#N)=C1Sc2c(OCCCCS(=O)(=O)[O-])ccc(OCCCCS(=O)(=O)[O-])c2S1.[Na+].[Na+]` [Compound M-5], in series [1] (setting [4]), the Initial haze came to 0.23. In series [2] (setting [6]), the Yellowishness entry is “No”.
`N#CC(C#N)=C1Sc2c(OCCCCS(=O)(=O)[O-])ccc(OCCCCS(=O)(=O)[O-])c2S1.[Na+].[Na+]` [Compound M-3]: the Initial haze is given as 0.1 in series [1] (setting [3]) and 0.22 in series [1] (setting [4]). In addition, the Yellowishness entry in series [2] (setting [5]) and in series [2] (setting [6]) was “No” throughout.
For `N#CC(C#N)=C1Sc2c(OC(=O)CCC(=O)[O-])ccc(OC(=O)CCC(=O)[O-])c2S1.[Na+].[Na+]` [Compound M-8], the Initial haze worked out at 0.1 in series [1] (setting [3]) and 0.21 in series [1] (setting [4]). Besides, the Yellowishness result in series [2] (setting [5]) and in series [2] (setting [6]) was “No” throughout.
